Test results from article doi:10.1101/2025.10.10.681541.
Results are given in words; binding and its absence hold for the method and conditions named. Binding can be weak; no strength is given. Tags and fused reporters may be left off the sequences shown.

Target: T1, E. coli cytochrome bd-I subunit CydX (E. coli) (UniProt P56100)
T1 sequence: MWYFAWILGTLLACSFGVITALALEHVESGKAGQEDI
Assay: cryo-EM structure

binding: binds
Substance: E. coli cytochrome bd-I subunit CydH
